Reference: US20260008770A1, “CBL-B INHIBITORS AND METHODS OF USES THEREOF” (Insilico Medicine IP Limited, priority 2022, published 2026)
The match of structure and compound is tentative.

Sequences of proteins named here, by UniProt entry; tags and fusion partners are left off.
UniProt Q13191, whole entry: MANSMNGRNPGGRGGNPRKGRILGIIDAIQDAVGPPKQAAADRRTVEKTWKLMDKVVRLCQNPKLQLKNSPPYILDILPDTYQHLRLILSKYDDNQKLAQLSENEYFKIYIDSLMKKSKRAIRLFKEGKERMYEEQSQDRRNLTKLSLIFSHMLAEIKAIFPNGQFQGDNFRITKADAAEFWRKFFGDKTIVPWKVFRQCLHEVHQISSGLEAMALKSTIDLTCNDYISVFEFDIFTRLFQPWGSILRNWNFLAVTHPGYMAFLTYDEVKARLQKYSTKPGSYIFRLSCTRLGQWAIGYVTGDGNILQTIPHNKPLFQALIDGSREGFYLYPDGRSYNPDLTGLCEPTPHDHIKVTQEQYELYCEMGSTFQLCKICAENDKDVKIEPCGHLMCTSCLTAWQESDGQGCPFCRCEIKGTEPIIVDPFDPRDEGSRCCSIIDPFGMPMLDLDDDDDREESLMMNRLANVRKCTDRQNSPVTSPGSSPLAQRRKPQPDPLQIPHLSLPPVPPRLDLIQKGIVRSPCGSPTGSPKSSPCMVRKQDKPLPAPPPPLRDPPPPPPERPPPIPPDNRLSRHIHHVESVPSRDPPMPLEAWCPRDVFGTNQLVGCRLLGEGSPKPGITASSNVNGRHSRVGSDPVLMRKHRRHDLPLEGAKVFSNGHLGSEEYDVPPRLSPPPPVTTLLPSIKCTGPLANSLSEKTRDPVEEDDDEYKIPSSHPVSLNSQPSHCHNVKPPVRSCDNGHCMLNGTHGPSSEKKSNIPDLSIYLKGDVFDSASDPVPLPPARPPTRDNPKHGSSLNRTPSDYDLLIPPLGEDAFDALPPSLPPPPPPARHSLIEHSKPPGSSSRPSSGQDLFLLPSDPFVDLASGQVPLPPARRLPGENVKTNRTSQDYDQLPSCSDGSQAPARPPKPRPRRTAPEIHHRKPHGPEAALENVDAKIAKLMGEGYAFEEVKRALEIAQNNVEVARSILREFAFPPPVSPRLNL

Molecular target: Cbl-b protein (CBL-B, GST-Tag) (Homo sapiens (Human), UniProt Q13191)
Test: HTRF based binding assay, affinity to Cbl-b protein
Conditions: fluorescence labeled Cbl-b binding probe

**Q.** `CC1CC(c2ccnc(-n3cnc4c(C(F)(F)F)cc(CN5CCC[C@H](C)C5)cc4c3=O)c2)(c2nncn2CF)C1` (stereo partly shown) was tested. Which IC50 did it give?
**A.** < 20 nM
